Experiments:
in vitro = conditions: dog, MDCK-MDR1, pH 7.4
[1] = cell batch quality control, BCRP-MDCK monolayers; assay type: in vitro ADME; conditions: dog; BCRP-MDCK cell batch QC; passage 23
Description: BCRP-MDCK cell monolayers were prepared at Absorption Systems. […] Each determination was performed in duplicate.

CC(C)NCC(O)COc1ccc(CC(N)=O)cc1 (centres unmarked) [Atenolol]
Papp at 120 min (in vitro): 0.0746 ×10⁻⁶ cm/s
Papp [1]: 0.0895 ×10⁻⁶ cm/s
